The values below come from patent publication US20040102454A1, “Phenylahistin and the phenylahistin analogs, a new class of anti-tumor compounds” (priority 1998, published 2004).

Molecules are shown by their SMILES.

The subject of the assay is P388 cells. In words: P388 proliferation, Alamar Blue assay. The following applies: Mus musculus, P388, read-out: IC50 P388 proliferation. Format: cell-based, murine. As for the experimental part:
The biological activity of phenylahistin and its derivatives, synthesized as described in EXAMPLE 7 and established according to the methods described in EXAMPLES 5 and 11, are summarized in Table 4. […]
For this example, the Alamar Blue™ assay was performed as follows. Exponentially growing P388 cells were seeded into 96-well tissue culture plates (5×10^3 cells/100 μl/well) and cultured in RPMI 1640 medium supplemented with 10% fetal bovine serum for 16 h. Compounds (DMSO solution) were then added to each well at various concentrations, and the cells were cultured for an additional 48 h. Living cells were counted using Alamar Blue™ (BioSource International, Camarillo, Calif.), according to the method of Ahmed, S. A. et al., J. Immunol. Methods, 170, 211 (1994).
(The colour change of resazurin is a common sign of viable cells or microbes.)

Regarding `COc1cc2c(c(OC)c1OC)-c1ccc(OC)c(=O)cc1[C@@H](NC(C)=O)CC2` [colchicine], the IC50 was 31 nM.
